The values below come from paper PMC10938004.

Chains of the proteins cited; added tags and fusions are not shown. Lines headed by an entry give the natural chain unless they say otherwise; changes in a name come on top.
UniProt Q969V5: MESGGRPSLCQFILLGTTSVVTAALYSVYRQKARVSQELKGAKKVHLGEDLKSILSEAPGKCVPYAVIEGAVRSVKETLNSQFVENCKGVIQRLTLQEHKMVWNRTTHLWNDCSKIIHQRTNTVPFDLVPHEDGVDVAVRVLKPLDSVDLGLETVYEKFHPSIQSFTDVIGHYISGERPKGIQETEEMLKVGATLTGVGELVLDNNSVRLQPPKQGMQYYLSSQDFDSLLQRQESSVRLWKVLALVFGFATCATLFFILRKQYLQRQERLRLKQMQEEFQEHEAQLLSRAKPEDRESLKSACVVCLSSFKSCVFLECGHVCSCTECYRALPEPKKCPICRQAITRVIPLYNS

These are yes or no findings as the source states them, for the method shown. Binding calls can cover weak binding; strength is not graded here. Where a sequence is shown, tags or fusion partners need not be part of it.

In the test the target is GST-MUL1 (human) (UniProt Q969V5). Put plainly: pull-down; GST-MUL1 incubated with WT or H135Q His-tagged NME3 in the presence of ATP for 30 min, then glutathione beads pulldown; Western blot with MUL1 and His antibodies; both purified.

B1: His-tagged NME3 WT (protein, UniProt Q13232 1-169)
chain: MICLVLTIFANLFPAACTGAHERTFLAVKPDGVQRRLVGEIVRRFERKGFKLVALKLVQASEELLREHYAELRERPFYGRLVKYMASGPVVAMVWQGLDVVRTSRALIGATNPADAPPGTIRGDFCIEVGKNLIHGSDSVESARREIALWFRADELLCWEDSAGHWLYE
B1: the binding result is listed as “binds”.
